# The list shows a part of the results.
# Target: T1, OsSMF1 (Oryza sativa, UniProt Q6ZLB0 1-436)
# T1 sequence: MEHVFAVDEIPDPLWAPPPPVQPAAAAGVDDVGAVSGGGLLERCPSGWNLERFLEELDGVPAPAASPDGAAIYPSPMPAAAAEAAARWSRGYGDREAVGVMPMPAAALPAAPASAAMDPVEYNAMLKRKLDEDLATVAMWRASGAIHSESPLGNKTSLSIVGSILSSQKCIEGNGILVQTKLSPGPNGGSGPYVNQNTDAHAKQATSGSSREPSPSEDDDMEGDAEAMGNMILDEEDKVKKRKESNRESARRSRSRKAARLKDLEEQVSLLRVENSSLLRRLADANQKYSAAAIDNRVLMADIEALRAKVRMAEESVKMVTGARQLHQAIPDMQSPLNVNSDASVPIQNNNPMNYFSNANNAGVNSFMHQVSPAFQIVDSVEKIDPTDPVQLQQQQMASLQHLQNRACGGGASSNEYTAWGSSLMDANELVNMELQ
# Experiment: protein-binding microarray (RPBM); PBS, 2% BSA, 51.3 ng/ul salmon testes DNA, 50 uM zinc acetate, 200 nM TF, 25 C, 1 h; high values mean tight binding
# Conditions: protein: recombinant; tags: N-terminal polyhistidine and DsRed monomer fusion (pET32a); chain copies: 2; label: CyDye5-dUTP incorporated in the synthesized complementary strand; 3' TTTTT single-stranded linker to array surface; dsDNA, one strand shown
# Procedure, shortened: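 An Axon 4000B scanner gave the binding signal as per-feature fluorescence intensity in arbitrary units. This followed washing of a custom Agilent array that had been incubated for 1 h at 25 °C with 200 nM protein in PBS, 2% BSA, salmon testes DNA and 50 µM zinc acetate. The proteins were transcription factors fused at the N-terminus to polyhistidine and DsRed, expressed in E. coli BL21-CodonPlus and purified on Ni–NTA.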
row,Sequence,binding signal
1,TGTCATCTCCCTTGGCGCTCAACGTGGCGCCGAATCAACCCGGAGTCACCTAGTGCAG,6090 fluorescence intensity (a.u.)
2,ACCACCATTCGTGCTGCCGCTTGCGTGTTGTTATTACTCCCGGAGTCACCTAGTGCAG,4610 fluorescence intensity (a.u.)
3,GAAGCCTGTGCTTTCTAGACCTCAACACGAGTTTTACCTGCGGAGTCACCTAGTGCAG,32900 fluorescence intensity (a.u.)
4,TTGTTTCAACTGTAGTGCAGCCAATCCAAACAGTACTATGCGGAGTCACCTAGTGCAG,20200 fluorescence intensity (a.u.)
5,ACCGCCTCTCCACTCTACCACACCGACACGCACACCCAGCCGGAGTCACCTAGTGCAG,4270 fluorescence intensity (a.u.)
6,TAATCCTCTGTTTTACACGTGTATTTCTATCACATTCCTACGGAGTCACCTAGTGCAG,17300 fluorescence intensity (a.u.)
7,CACCTCGCTGCATCCAGGGCGAGCCGTGTCACCGTCCTCCCGGAGTCACCTAGTGCAG,5720 fluorescence intensity (a.u.)
8,TATTTTCAATTTTATAGTTGTTTTATCCTACTCAAACTATCGGAGTCACCTAGTGCAG,19600 fluorescence intensity (a.u.)
9,GTTTCCTGATGTTGTGCCAGTGCAGCACGTTGAGGAGGCGCGGAGTCACCTAGTGCAG,3330 fluorescence intensity (a.u.)
10,GGATTCGGTCATTTGAGAATGACATATGGGGCCCACGTGGCGGAGTCACCTAGTGCAG,5670 fluorescence intensity (a.u.)
11,GCAAATACTGTGACTCAGAAGGTGTGGCGATACTAGATTTCGGAGTCACCTAGTGCAG,8300 fluorescence intensity (a.u.)
12,ACTTCCCATTGTTGTTGCCATCGCCGCCGCCGCCGCCGCCCGGAGTCACCTAGTGCAG,3420 fluorescence intensity (a.u.)
13,GAGAACCCACCCACGTGATCTTTTGTTGCTCAACTTAAGTCGGAGTCACCTAGTGCAG,27400 fluorescence intensity (a.u.)
14,AATTTCCCACATCCTCCAATCAAACTGAGATTATAATGCTCGGAGTCACCTAGTGCAG,3300 fluorescence intensity (a.u.)
15,ATTTGGCTCCTGATGACTAATCCGCTTGAAACACCTCGCTCGGAGTCACCTAGTGCAG,5200 fluorescence intensity (a.u.)
16,TACGATCTAACGTCAGATATTATCTTAACATCCCTTGTTCCGGAGTCACCTAGTGCAG,5880 fluorescence intensity (a.u.)
17,TAATTTGTGGTGTCTGTGTGACTATTTACGTTTCTGGTTACGGAGTCACCTAGTGCAG,3180 fluorescence intensity (a.u.)
18,AGGAGAGCAGCATGTCCAACCTGACCTCCTCCGCCTCCACCGGAGTCACCTAGTGCAG,13800 fluorescence intensity (a.u.)
19,CTATAGCTAGCTGCCGTTGCGTGCCAGCTACTACAACACCCGGAGTCACCTAGTGCAG,3380 fluorescence intensity (a.u.)
20,CGGGAGCGTGAGCATCACGGCCACCGCCGCCTCCGCCGCCCGGAGTCACCTAGTGCAG,4730 fluorescence intensity (a.u.)
21,GCTTACCATTTCTTGGTTTCAATTGGGTGATGCTGTGTTGCGGAGTCACCTAGTGCAG,3370 fluorescence intensity (a.u.)
22,CGCCGCGTAGCCTCGCCCACGGCGATGACGACGGCGGCGGCGGAGTCACCTAGTGCAG,3660 fluorescence intensity (a.u.)
23,GGTTGAGTATTTGTCATGGTTTGTGGATGCATGGATGGTTCGGAGTCACCTAGTGCAG,4180 fluorescence intensity (a.u.)
24,AGTCGCCACATCAGCTAAAACTATGATGAATATTGTCTTGCGGAGTCACCTAGTGCAG,14200 fluorescence intensity (a.u.)
25,AGTTGGATATCAATTGGCCGATGTGTGGGTCAAGCAACAACGGAGTCACCTAGTGCAG,17600 fluorescence intensity (a.u.)
26,TGTCAGGGTGTCCACGTCAGCAGTTCTCTCTTTCCCCACTCGGAGTCACCTAGTGCAG,31700 fluorescence intensity (a.u.)
27,GCCATCTCAGTGCCGGTGAGCTGGGGACGTGGTAATTTCCCGGAGTCACCTAGTGCAG,3760 fluorescence intensity (a.u.)

# As a short view, part of the list above.
row,Sequence,binding signal
19,CTATAGCTAGCTGCCGTTGCGTGCCAGCTACTACAACACCCGGAGTCACCTAGTGCAG,3380 fluorescence intensity (a.u.)
20,CGGGAGCGTGAGCATCACGGCCACCGCCGCCTCCGCCGCCCGGAGTCACCTAGTGCAG,4730 fluorescence intensity (a.u.)

# Later entries:

row,Sequence,binding signal
1,ATGCCATCAGCGTTAGTCAACCGTTAGTCATACACCATTACGGAGTCACCTAGTGCAG,3490 fluorescence intensity (a.u.)
2,GACCCTGCATACATCGCATGTATCCCAATCAGCGGAGACACGGAGTCACCTAGTGCAG,3350 fluorescence intensity (a.u.)
3,GTAGGCGACGCCGATCTCCCTCTACGTTGCGGCATTGGCTCGGAGTCACCTAGTGCAG,3560 fluorescence intensity (a.u.)
4,GATGCATGCTCTGAGTAGGCCACGTACCAGAACATTCGGGCGGAGTCACCTAGTGCAG,5410 fluorescence intensity (a.u.)
5,TAATCTTTTACTGACACATGTAATACAGGTAGTTAGTTTCCGGAGTCACCTAGTGCAG,3270 fluorescence intensity (a.u.)
6,GAGCACAAGTTCTCACCAACTTGACTCATTGTTAAGAAGCCGGAGTCACCTAGTGCAG,4350 fluorescence intensity (a.u.)
7,AAGTTGCACAACCATAACAAGAAAATGTGATGCTATCTGACGGAGTCACCTAGTGCAG,7340 fluorescence intensity (a.u.)
8,ACTCAGGAACAAGACGTGTCAGATTAGTCGAGGCTGTTCCCGGAGTCACCTAGTGCAG,3260 fluorescence intensity (a.u.)
9,CGCTCCGGCCGCCGCCGCCGCCGCCGTCGCGTGGGAGGGGCGGAGTCACCTAGTGCAG,7030 fluorescence intensity (a.u.)
10,TCTATTGTATTAAACCGGTATGGTCCTAAACCGCTAAACCCGGAGTCACCTAGTGCAG,18800 fluorescence intensity (a.u.)
11,ACTCCCTCGCCTCACCACGCTCCCCTGCGTCAGGTCTTCCCGGAGTCACCTAGTGCAG,3790 fluorescence intensity (a.u.)
12,TACTTGAGCGACGCGAGTCACCGAAACCGCCATGTAGGTTCGGAGTCACCTAGTGCAG,3380 fluorescence intensity (a.u.)
13,GCTGGCTTCCAGTTGGGTGGTGAACCCAGACGGCTGCATTCGGAGTCACCTAGTGCAG,26300 fluorescence intensity (a.u.)
14,CGTGCAGGCGCTGATACTACTGGTGAATCGGAAGGTGACGCGGAGTCACCTAGTGCAG,3770 fluorescence intensity (a.u.)
15,ATTGATTGTGTACGTTTTGCCCTTAATCCTTGTCAGCAGTCGGAGTCACCTAGTGCAG,7110 fluorescence intensity (a.u.)
16,GTATTGATGTTAATGAATCTAGATAGATATATATGTCTAACGGAGTCACCTAGTGCAG,26800 fluorescence intensity (a.u.)
17,CGACGCGTGGCCTCGACGTGGCAGTGCCGAACCAAAGCTTCGGAGTCACCTAGTGCAG,5910 fluorescence intensity (a.u.)
18,TTAACCTCGTGTGCATGCGTGTTTTGATTTCTCGCGGTTTCGGAGTCACCTAGTGCAG,6630 fluorescence intensity (a.u.)
19,CCATTGAATTTTACGGCCGGGTCGGAAGAAATATATATAACGGAGTCACCTAGTGCAG,32200 fluorescence intensity (a.u.)
20,AGCGCCACAGTGTACTGAGTCACCGCCATGTGGGTCCCACCGGAGTCACCTAGTGCAG,10600 fluorescence intensity (a.u.)
21,CCTTCGCCAATTGGGCGCTAATCAGGCGGGTATTTTGGATCGGAGTCACCTAGTGCAG,3410 fluorescence intensity (a.u.)
22,AGCTAGCAGAGGCGCCGTCGTGGTCGCCGTCGTTCGTCCTCGGAGTCACCTAGTGCAG,4110 fluorescence intensity (a.u.)
23,CGAGTGACGAGGTCTTGGGTTGGGGTAGGGGTGGGATGAGCGGAGTCACCTAGTGCAG,5240 fluorescence intensity (a.u.)
24,CTTTTGTTCACTTTGATCTAACAATTTAAGCATGATTATGCGGAGTCACCTAGTGCAG,3190 fluorescence intensity (a.u.)
25,CTTATTCAAGATTTATATAATTATCATTTATTTTATTGGGCGGAGTCACCTAGTGCAG,3840 fluorescence intensity (a.u.)
26,CTAATCAAAACCGGTCACAAAAGGTCCCTCGACGGTTTTGCGGAGTCACCTAGTGCAG,4570 fluorescence intensity (a.u.)
27,GTCCTTCTTGCAACCAACAGTCTGGCAAGGCCGTTACGTCCGGAGTCACCTAGTGCAG,3410 fluorescence intensity (a.u.)

# Random excerpt: two records from the list.
row,Sequence,binding signal
25,CTTATTCAAGATTTATATAATTATCATTTATTTTATTGGGCGGAGTCACCTAGTGCAG,3840 fluorescence intensity (a.u.)
9,CGCTCCGGCCGCCGCCGCCGCCGCCGTCGCGTGGGAGGGGCGGAGTCACCTAGTGCAG,7030 fluorescence intensity (a.u.)

# Source: PMC7819943, “Rice protein-binding microarrays: a tool to detect cis-acting elements near promoter regions in rice”
